Measurements taken from PubChem BioAssay AID2685 (National Center for Advancing Translational Sciences (NCATS), 2010).
The list shows a part of the results. Shown are side measurements of this screen, not its main read-out; they come without a call. Most of these compounds were active or inconclusive in the main read-out, so they are no random draw. Potencies come from curve fits of mixed quality, noted in brackets.

Assay: qHTS Assay for Lipid Storage Modulators in Drosophila S3 Cells;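 for cell number change: cells counted by Cell Tracker Red CMTPX staining in the red channel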
Conditions: BODIPY lipid droplet fluorescence, 18-24 h; for cell number change: measured here: cell count max response, cells fed with added oleic acid
In short: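 Laser-scanning cytometry quantifies lipid droplet accumulation (500–530 nm total intensity; droplet/cell object ratio) in oleic acid-fed (400 uM added) Drosophila S3 cells treated with a concentration series. 20 uM Triacsin C defined 100% inhibition.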

[1] = measured here: lipid fluorescence (Fed channel) AC50, cells fed with added oleic acid
[2] = measured here: cell number channel AC50, cells fed with added oleic acid

Row | Structure (SMILES) | cell number change | AC50 [1] | AC50 [2]
1 | COc1ccc(C2=NOC(C(=O)NC(C)C)C2)cc1 (stereo not drawn) | -33.9% | 16.4 µM [falling, single point] | –
2 | CCc1ccc(OCc2ccc(C(=O)NCc3ccccn3)o2)cc1 | – | – | 2.59 µM [rising, single point]
3 | COc1ccc(C(=O)NCC(=O)N2CCN(C(=O)c3ccco3)CC2)cc1OC | -12.5% | – | –
4 | CCN(C(=O)CSc1nc2nc(C)cc(C)n2n1)C1CCS(=O)(=O)C1 (stereo not drawn) | – | 0.58 µM [falling, single point] | 0.00461 µM [falling, full curve, poor fit]
5 | COc1ccc2nc(NC(=O)CSc3ccccc3)sc2c1 | – | 2.06 µM [rising, partial curve] | 2.06 µM [rising, partial curve]
6 | CC1CCC2(CC1)C(Nc1cccc(Cl)c1)=NC(=S)N2CC#N (stereo not drawn) | -19.1% | 29.1 µM [falling, single point] | –
7 | CC(=O)NCCc1nc2cc(NC(=O)c3ccc([N+](=O)[O-])cc3)ccc2n1C | 9.15% | – | –
8 | O=C(CSCc1ccccc1Cl)Nc1ccc(C(=O)O)cc1 | 28.5% | 6.51 µM [falling, single point] | –
9 | O=C(CCn1cnnn1)Nc1ccccc1F | -22.2% | 2.31 µM [falling, partial curve] | 2.91 µM [rising, single point]
10 | CCOC(=O)c1c(NC(=O)CSc2cccc[n+]2[O-])sc(C(=O)Nc2ccccc2)c1C | -13.4% | 10.3 µM [falling, single point] | –
11 | COc1ccc(C(C(=O)NC2CCCCC2)N(C(=O)c2sc(C)nc2C)c2ccccc2C)cc1 (stereo not drawn) | 15.6% | – | –
12 | CCCC12CN3CCN(CC(C3)/C1=N\NC(=O)c1ccc(F)cc1)C2 | 52.3% | 18.4 µM [rising, partial curve] | 18.4 µM [rising, single point]
13 | Cc1ccc(OCC(=O)NNC(=O)CCc2ccccc2)cc1 | 21.7% | 13 µM [rising, partial curve] | –
14 | Cc1c(C(=O)Nc2ccccc2C(=O)N2CCOCC2)cccc1[N+](=O)[O-] | 13.5% | 7.31 µM [rising, single point] | –
15 | COCCNC(=O)c1cc(-c2cccnc2)nc2ccc(Br)cc12 | 77.4% | – | 1.3 µM [rising, full curve]
16 | CCOC(=O)c1cc2c(C)n(-c3ccc(C)cc3)c(C)c2ccc1=O | -49.5% | – | 29.1 µM [falling, single point]
17 | Cc1noc(C)c1CSc1nnc2scc(-c3ccc(Cl)cc3)n12 | 56.2% | 0.326 µM [rising, partial curve, poor fit] | 0.58 µM [rising, full curve]
18 | Cc1cc(C(=O)NC2CCCc3c2cnn3-c2ccc(C(C)(C)C)cc2)n[nH]1 (stereo not drawn) | -53.6% | 0.58 µM [falling, full curve] | 7.31 µM [falling, partial curve, poor fit]
19 | O=c1ccc(Cc2ccccn2)n[nH]1 | 11.1% | 29.1 µM [falling, single point] | –
20 | C/C(=N\NC(=O)c1nnn(-c2nonc2N)c1-c1ccc(Cl)c(Cl)c1)c1ccncc1 | 6.73% | – | –
21 | CC1Cc2ccccc2N1C(=O)C1CCCN(S(=O)(=O)c2cccc3nsnc23)C1 (stereo not drawn) | – | 25.9 µM [rising, single point] | –

Row | Structure (SMILES) | cell number change | AC50 [1] | AC50 [2]
22 | CC(C)(C)c1ccc(NC(=O)Cn2cnc3cc([N+](=O)[O-])ccc3c2=O)cc1 | 2.77% | – | –
23 | CC1(OCON)CCCc2ccccc21 (stereo not drawn) | -8.38% | – | –
24 | COc1ccc2cc(Br)ccc2c1CC(=O)NC1CC(C)(C)NC(C)(C)C1 | 0.204% | 3.66 µM [falling, partial curve] | –
25 | CC1=Nc2ccccc2/C1=C\c1nc(-c2ccc(F)cc2)oc1O | – | 23.1 µM [falling, partial curve] | –
26 | COc1ccc(S(=O)(=O)N2CCCCC2)cc1NC(=O)CN(Cc1ccco1)Cc1ccco1 | -5.55% | 1.16 µM [falling, full curve, poor fit] | –
27 | O=C(CNC(=O)c1ccc(Br)o1)Nc1ccc(N2CCCCCC2)cc1 | – | 0.259 µM [rising, full curve, poor fit] | –
28 | CC(C)c1ccc(NC(=O)CN(Cc2ccccc2)S(C)(=O)=O)cc1 | -39.9% | 20.6 µM [falling, partial curve] | 20.6 µM [falling, single point]
29 | Cc1csc(NC(=O)C(C)Oc2ccc(Cl)cc2C)n1 (stereo not drawn) | -12.4% | 0.13 µM [rising, full curve, poor fit] | –
30 | O=C(Nc1nc(-c2ccccn2)cs1)c1ncc(Cl)c(Cl)c1Cl | 13.6% | 6.51 µM [rising, single point] | –
31 | COc1ccc(-c2nc(N)nc(C)c2-c2ccc(Cl)cc2)c(O)c1 | -30.5% | 16.4 µM [falling, single point] | 16.4 µM [falling, partial curve, poor fit]
32 | CCN(CC(=O)Nc1c(F)cccc1F)C(=O)c1cn2ccccc2n1 | 12.8% | 20.6 µM [rising, single point] | –
33 | CC(=O)Nc1ccc(SCC(=O)c2cc(C)n(-c3ccccc3F)c2C)cc1 | 40.3% | 29.1 µM [rising, partial curve] | 4.61 µM [falling, partial curve]
34 | O=C(O)c1ccc(NC(=O)c2cccc(C(=O)Nc3ccc(C(=O)O)cc3)c2)cc1 | -16.2% | 0.13 µM [falling, full curve, poor fit] | –
35 | CCOc1ccc(NS(=O)(=O)c2ccc(C(=O)NCCCN3CCCC3=O)cc2)cc1 | -3.83% | – | –
36 | COc1ccc(C2=NN(CCC(=O)NCc3ccc4c(c3)OCO4)C(=O)CC2)cc1 | 11.4% | 14.6 µM [rising, single point] | –
37 | CCOC(=O)c1cccc(NC(=O)CCn2c(=O)oc3ccccc32)c1 | -4.96% | 6.51 µM [rising, single point] | –
38 | CN(CC(=O)Nc1ccccc1Br)C(=O)CNC(=O)Cc1cccc2ccccc12 | 42.5% | 29.1 µM [rising, single point] | 0.82 µM [rising, full curve, poor fit]
39 | CSc1c(SCc2ccccc2)cnn(-c2ccccc2)c1=O | 11% | 0.00461 µM [falling, full curve, poor fit] | –
40 | N/C(=N/OCC(=O)Nc1cccc2ccccc12)c1nonc1N | -6.74% | – | –
41 | COc1ccc(CN2CCC(C(=O)Nc3ccc(Oc4cccnc4)cc3)CC2)c(C)c1C | -13.5% | – | –
42 | ClC1(Cl)CC1Cn1cnc2ccccc21 (stereo not drawn) | – | 3.26 µM [rising, partial curve, poor fit] | –

Row | Structure (SMILES) | cell number change | AC50 [1] | AC50 [2]
43 | CCOC(=O)c1c(C)oc(NC(=O)COc2ccc(Cl)cc2C)c1C#N | -2.86% | – | –
44 | COC(=O)CSc1[nH]c2ccccc2c1[N+](=O)[O-] | -21.2% | – | –
45 | Cc1ccc(SCc2c(C(=O)N/N=C/c3ccc4c(c3)OCO4)nnn2-c2nonc2N)cc1 | 22.5% | 29.1 µM [falling, single point] | –
46 | O=C(N=C1SC2CS(=O)(=O)CC2N1c1ccc(Cl)cc1Cl)C1CC1 (stereo not drawn) | 7.76% | – | –
47 | NS(=O)(=O)c1cc(C(=O)OCC(=O)Nc2ccccc2[N+](=O)[O-])ccc1Cl | -12.9% | – | –
48 | COc1ccc(O)c(/C=N\NC(=O)CCn2nnc3ccccc32)c1 | – | – | 0.58 µM [rising, partial curve]
49 | COc1ccc(-c2nc(NC(C)=O)sc2-c2ccc(OC)cc2)cc1 | -44.1% | 29.1 µM [falling, single point] | 29.1 µM [falling, single point]
50 | COc1ccc(-c2cc(C(=O)N3CCN(C(c4ccccc4)c4ccccc4)CC3)no2)cc1 | -13% | – | –
51 | CC(C)C(C(=O)NC1CCCC1)N(CC1CCCO1)C(=O)CNS(=O)(=O)c1ccc(F)cc1 (stereo not drawn) | – | 2.59 µM [falling, partial curve] | –
52 | COc1ccc(C(=O)Nc2nc(C)cc(C)n2)cc1[N+](=O)[O-] | -83.3% | – | 29.1 µM [falling, single point]
53 | CCCOC(=O)CCCN1C(=O)/C(=C2\SC(=S)N(CCCC(=O)OCCC)C2=O)SC1=S | -25.1% | 29.1 µM [falling, single point] | –
54 | COc1ccccc1NCc1ccc([N+](=O)[O-])s1 | -13.2% | 0.259 µM [falling, full curve, poor fit] | –
55 | Cc1ccc(NC(=S)NCc2ccc3c(c2)cc(C)n3C)c(C)c1 | 41.6% | – | –
56 | Nc1ccc2nc3n(c(=O)c2c1)CCC3 | 35.2% | – | 0.146 µM [rising, full curve, poor fit]
57 | O=C1C2CCCN2c2ccc(S(=O)(=O)N3CCOCC3)cc2N1Cc1cccc(C(F)(F)F)c1 (stereo not drawn) | 34.7% | – | 23.1 µM [rising, single point]
58 | CCOC(=O)c1ccc2c(c1)nc(SC/C(O)=C(\C#N)c1nc3ccccc3[nH]1)n2CC | 51.6% | 0.58 µM [rising, partial curve] | 9.2 µM [rising, partial curve]
59 | O=C(Nc1ccc(S(=O)(=O)Nc2ncccn2)cc1)C(F)(F)F | 5.22% | 29.1 µM [rising, single point] | –
60 | COCCCn1c(SCC(=O)OC2CCCCC2)nnc1-c1ccco1 | -13.5% | 5.8 µM [falling, single point] | 1.3 µM [falling, partial curve]
61 | C=CCCC(=O)N(C)CCO | -5.46% | 5.8 µM [rising, single point] | –
62 | COc1ccccc1Nc1ncnc2c1oc1ccccc12 | -9.57% | – | –
63 | COc1cccc2sc3ccc(C#CC4(O)CCCCC4)cc3c(=O)c12 | -29.4% | – | –

Copied from above: compounds 45–58
Row | Structure (SMILES) | cell number change | AC50 [1] | AC50 [2]
45 | Cc1ccc(SCc2c(C(=O)N/N=C/c3ccc4c(c3)OCO4)nnn2-c2nonc2N)cc1 | 22.5% | 29.1 µM [falling, single point] | –
46 | O=C(N=C1SC2CS(=O)(=O)CC2N1c1ccc(Cl)cc1Cl)C1CC1 (stereo not drawn) | 7.76% | – | –
47 | NS(=O)(=O)c1cc(C(=O)OCC(=O)Nc2ccccc2[N+](=O)[O-])ccc1Cl | -12.9% | – | –
48 | COc1ccc(O)c(/C=N\NC(=O)CCn2nnc3ccccc32)c1 | – | – | 0.58 µM [rising, partial curve]
49 | COc1ccc(-c2nc(NC(C)=O)sc2-c2ccc(OC)cc2)cc1 | -44.1% | 29.1 µM [falling, single point] | 29.1 µM [falling, single point]
50 | COc1ccc(-c2cc(C(=O)N3CCN(C(c4ccccc4)c4ccccc4)CC3)no2)cc1 | -13% | – | –
51 | CC(C)C(C(=O)NC1CCCC1)N(CC1CCCO1)C(=O)CNS(=O)(=O)c1ccc(F)cc1 (stereo not drawn) | – | 2.59 µM [falling, partial curve] | –
52 | COc1ccc(C(=O)Nc2nc(C)cc(C)n2)cc1[N+](=O)[O-] | -83.3% | – | 29.1 µM [falling, single point]
53 | CCCOC(=O)CCCN1C(=O)/C(=C2\SC(=S)N(CCCC(=O)OCCC)C2=O)SC1=S | -25.1% | 29.1 µM [falling, single point] | –
54 | COc1ccccc1NCc1ccc([N+](=O)[O-])s1 | -13.2% | 0.259 µM [falling, full curve, poor fit] | –
55 | Cc1ccc(NC(=S)NCc2ccc3c(c2)cc(C)n3C)c(C)c1 | 41.6% | – | –
56 | Nc1ccc2nc3n(c(=O)c2c1)CCC3 | 35.2% | – | 0.146 µM [rising, full curve, poor fit]
57 | O=C1C2CCCN2c2ccc(S(=O)(=O)N3CCOCC3)cc2N1Cc1cccc(C(F)(F)F)c1 (stereo not drawn) | 34.7% | – | 23.1 µM [rising, single point]
58 | CCOC(=O)c1ccc2c(c1)nc(SC/C(O)=C(\C#N)c1nc3ccccc3[nH]1)n2CC | 51.6% | 0.58 µM [rising, partial curve] | 9.2 µM [rising, partial curve]
